Where two headings read alike, the source gives them in different places.
What was measured:
Assay type in all cases: cell-based
HEK293 Mock transfected = assay: Anticancer activity in mock transfected HEK293; details: Homo sapiens, Bcr-Abl negative
Source text: (§1) A panel of NSCLC cell lines harboring different EGFR mutations were purchased from American Type Culture Collection (ATCC; Manassas, VA, USA). They include H292 (bearing wild type EGFR), HCC827 (bearing EGFR sensitizing E746_A750 deletion) and H1975 (bearing the resistance causing EGFR T790M secondary mutation). The leukemic cell line K562 (harboring wild type Bcr Abl) and RPMI8226 (no Bcr Abl expression) were generous gift from Dr. Susan Bates (National Cancer Institute, NIH, Bethesda, MD, USA). […]. The HEK293T cells (from ATCC) were stably transfected with the wild type Bcr Abl or its E255K mutant. H292, HCC827, H1975, RPMI8226 cells were maintained in RPMI1640 medium supplemented with 10% fetal bovine serum, 100 units/mL streptomycin sulfate, and 100 units/mL penicillin G sulfate, and incubated at 37 °C in 5% CO2. K562, K562 Ima1.0, HEK293T stable transfected cell lines were grown in DMEM medium supplemented with 10% fetal bovine serum, 100 units/mL streptomycin sulfate, 100 units/mL penicillin G sulfate.

K562 = assay: Anticancer activity (cytotoxicity) in CML cell line; details: Homo sapiens
Source text: as §1

K562 Ima1.0 = assay: Anticancer activity in imatinib-selected resistant K562 subline; details: Homo sapiens, K562, read-out: Anticancer activity (IC50) K562 Imatinib selected (K562 Ima1.0); Bcr-Abl amplification

**Q.** For `Cc1ccc(NC(=O)c2ccc(CN3CCN(C)CC3)cc2)cc1Nc1nccc(-c2cccnc2)n1` [Imatinib, reference compound], which IC50 (HEK293 Mock transfected) is on record?
**A.** 11600 ± 2190 nM

**Q.** What about the IC50 (K562; CML cell line, Bcr-Abl positive, Table 1, read-out: Anticancer activity (IC50) K562) of the same compound?
**A.** 150 ± 20 nM

**Q.** And the IC50 (K562; Table 2, read-out: Anticancer activity (IC50) K562 Sensitive parental)?
**A.** 150 ± 20 nM

**Q.** And the IC50 (K562 Ima1.0)?
**A.** 2080 ± 480 nM

Source: article PMC4858680, “A platinum-based hybrid drug design approach to circumvent acquired resistance to molecular targeted tyrosine kinase inhibitors” (Scientific Reports, 2016)
